Results are given in words; binding and its absence hold for the method and conditions named. Binding seen in cells or lysates may run through a third protein. Some results given as binding are weak or reduced against the parent protein; the word gives no strength.
Biological target: Keratin-8 (human (endogenous in ACT1)) (UniProt P05787)
Experiment: co-IP; magnetic bead-based immunoprecipitation from ACT1 lysates with antibodies to KRT8, annexin-A2 or non-targeting IgG; eluates probed by Western blot with KRT8 and annexin-A2 antibodies; repeated in triplicate

Amino acid sequences for entries named in this document (tags omitted).
UniProt P05787: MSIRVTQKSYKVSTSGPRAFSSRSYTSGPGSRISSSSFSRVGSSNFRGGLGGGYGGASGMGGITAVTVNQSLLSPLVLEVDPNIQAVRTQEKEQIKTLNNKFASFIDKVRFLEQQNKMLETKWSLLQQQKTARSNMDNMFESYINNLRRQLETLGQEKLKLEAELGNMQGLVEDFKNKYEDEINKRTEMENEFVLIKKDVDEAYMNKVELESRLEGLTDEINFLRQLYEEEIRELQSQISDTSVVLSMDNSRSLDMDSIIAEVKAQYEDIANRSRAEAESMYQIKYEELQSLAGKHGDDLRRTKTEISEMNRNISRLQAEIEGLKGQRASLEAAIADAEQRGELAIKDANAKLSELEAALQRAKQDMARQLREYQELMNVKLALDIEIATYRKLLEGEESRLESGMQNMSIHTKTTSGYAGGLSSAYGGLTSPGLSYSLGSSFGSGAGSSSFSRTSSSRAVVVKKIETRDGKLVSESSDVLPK
UniProt P07355: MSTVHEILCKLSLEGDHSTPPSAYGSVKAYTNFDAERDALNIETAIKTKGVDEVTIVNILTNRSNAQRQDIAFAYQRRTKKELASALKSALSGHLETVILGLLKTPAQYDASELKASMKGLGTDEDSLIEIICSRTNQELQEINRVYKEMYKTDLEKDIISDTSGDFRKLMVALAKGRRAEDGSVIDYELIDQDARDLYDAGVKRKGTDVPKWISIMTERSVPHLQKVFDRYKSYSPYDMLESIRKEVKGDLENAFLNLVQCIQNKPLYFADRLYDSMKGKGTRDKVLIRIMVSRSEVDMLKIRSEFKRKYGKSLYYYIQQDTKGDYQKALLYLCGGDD

binding: binds
Substance: Annexin A2 (from UniProt P07355 1-339)

— PMC5855799
